# Hit rate of the full screen: of about 580,000 compounds, about 6,100 (1.1%) were called active. Inconclusive means that the source gave no clear call. Such entries were picked first, then a sample of the others. Calls come from the whole dose curve; as a rule, active = well fitted inhibition curve with a large enough effect; inconclusive = small, poorly fitted or top-dose-only effect, or another doubt; inactive = no such curve, though single readings can be large or run the other way. Potencies of inconclusive entries are doubtful fits and often do not repeat.
# The chains behind the UniProt entries cited, without tags or fusion partners. Where a name states a change or a piece, a line headed by the entry shows the natural chain unless it says otherwise.
# UniProt P18054: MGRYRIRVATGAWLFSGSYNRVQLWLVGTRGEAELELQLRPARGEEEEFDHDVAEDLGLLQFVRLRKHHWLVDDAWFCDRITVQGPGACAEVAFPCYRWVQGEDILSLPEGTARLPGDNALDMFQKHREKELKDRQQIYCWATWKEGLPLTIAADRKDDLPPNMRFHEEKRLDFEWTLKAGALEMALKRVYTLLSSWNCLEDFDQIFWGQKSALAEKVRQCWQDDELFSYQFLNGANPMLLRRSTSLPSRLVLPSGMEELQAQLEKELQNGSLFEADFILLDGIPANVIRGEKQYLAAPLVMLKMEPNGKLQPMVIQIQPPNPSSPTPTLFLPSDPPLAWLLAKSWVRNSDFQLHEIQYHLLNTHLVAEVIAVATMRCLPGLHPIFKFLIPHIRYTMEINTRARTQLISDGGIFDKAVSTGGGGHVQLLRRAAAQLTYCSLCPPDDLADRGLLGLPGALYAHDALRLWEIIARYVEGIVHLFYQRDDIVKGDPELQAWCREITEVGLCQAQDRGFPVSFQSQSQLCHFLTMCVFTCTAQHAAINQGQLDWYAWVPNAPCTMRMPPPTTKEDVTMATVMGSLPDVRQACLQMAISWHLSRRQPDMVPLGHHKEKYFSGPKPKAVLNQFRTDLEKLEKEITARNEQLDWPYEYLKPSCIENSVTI
# Molecular target: Polyunsaturated fatty acid lipoxygenase ALOX12 (Homo sapiens) (UniProt P18054)
# Test: Primary qHTS assay for inhibitors of human arachidonate 12S-lipoxygenase (ALOX12): Round 2
# Conditions: purified 12hLO, xylenol orange hydroperoxide absorbance; activity change, negative = inhibition: at 108 µM (top of the series) unless noted
# In short: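 Hydroperoxide product was detected by ferrous iron/xylenol orange as the 573 to 405 nm absorbance ratio. Arachidonic acid at 40 uM (final) was turned over for 30 min at room temperature by 150 nM human 12hLO, pH 7.0 Hepes buffer, after 15 min compound preincubation.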
# % is set by controls: 0 for no effect and ±100 for the full control effect; potency is the fitted concentration of half-maximal effect.
Structure (SMILES),Potency,"activity change, negative = inhibition"
COc1ccc(C(CNC(=O)c2oc3ccc(OC)cc3c2C)N2CCCC2)cc1 (stereo not given),"inconclusive: 28.2 µM [inhibitor, partial curve]",
NNC(=O)c1ccc(N2CCc3ccccc32)c([N+](=O)[O-])c1,,inactive: 0.204%
COc1ccc(C(CNC(=O)c2cccc(NS(=O)(=O)c3ccc(Br)cc3)c2)N(C)C)cc1 (stereo not given),"inconclusive: 50.1 µM [inhibitor, partial curve, poor fit]",
COc1ccccc1CC(=O)N1CCC2(CC1)NC(=O)N(c1cccc(F)c1)N2,active: 1.78 µM,
Cc1nn(-c2ccc(F)cc2)c2c1cc(C#N)c1nc3ccccc3n12,"inconclusive: 0.398 µM [inhibitor, full curve, poor fit]",
O=C(Cc1c(O)c2ccccc2[nH]c1=O)NC1CCCCCCC1,"inconclusive: 89.1 µM [inhibitor, partial curve, poor fit]",
CC(NC(=O)CN1CCN(CC(=O)Nc2ccccc2Cl)CC1)c1ccc(Br)cc1 (stereo not given),"inconclusive: 4.47 µM [inhibitor, full curve, poor fit]",
COc1ccc2[nH]c(C(=O)N3CCN4CCS(=O)(=O)N(C5CC5)C(=O)C4C3)cc2c1 (stereo not given),active: 22.4 µM,
O=C(Nc1ccccc1)N1CCC2(CC1)SCC(=O)N2c1ccccc1,,inactive: 31.1%
COc1ccccc1N1CCN([C@@H]2[C@H](O)[C@H](CO)O[C@@H]2CNCc2cccc(Cl)c2)CC1,"inconclusive: 17.8 µM [inhibitor, full curve, poor fit]",
COc1cccc(CNC(=O)C(=O)NCCC2CCCCN2S(=O)(=O)c2cccs2)c1 (stereo not given),"inconclusive: 50.1 µM [inhibitor, partial curve, poor fit]",
Cc1ccc(-c2nc3c(c(=O)[nH]c(=O)n3Cc3ccccc3)n2C)o1,,inactive: -23.9%
COc1ccc2c(c1)[C@@H](NC(=O)OCc1ccccc1)[C@H](C)[C@@H](c1ccccc1)N2Cc1ccccn1,"inconclusive: 15.8 µM [inhibitor, partial curve, poor fit]",
C/C=C/C=C/C(=O)NC1CCCc2ccccc21 (stereo not given),"inconclusive: 1.26 µM [inhibitor, partial curve, poor fit]",
COc1cc(F)ccc1-c1cc(C(=O)NCc2ccnc(N)c2)c2c(c1)ncn2C,"inconclusive: 28.2 µM [inhibitor, full curve]",
CCOc1ccc(-n2nnnc2SCC(=O)c2ccccc2)cc1,,inactive: 0.211%
CS(=O)(=O)c1ccc(OCC2(CNCc3cccnc3)C[C@@H](O)[C@@H](O)C2)cc1 (stereo not given in full),"inconclusive: 39.8 µM [inhibitor, single point]",
Cc1ccc(CNC(=S)NC(C)C(C)(C)C)cc1 (stereo not given),"inconclusive: 56.2 µM [inhibitor, partial curve, poor fit]",
COc1ccccc1-c1nc(C(=O)NC2CC2)n2ccncc12,"inconclusive: 25.1 µM [inhibitor, full curve]",
C[C@@H](c1ccccc1)N1C[C@@H](COCc2ccccc2)Oc2cc(N3CCC[C@H]3CO)ccc2S1(=O)=O,"inconclusive: 63.1 µM [inhibitor, partial curve, poor fit]",
CCCCCn1nc(C(=O)N2CCCC(C(N)=O)C2)c2ccccc2c1=O (stereo not given),"inconclusive: 28.2 µM [inhibitor, partial curve, poor fit]",
CN(Cc1ccccc1)C(=O)c1ccc2c(c1)NC(C)(COc1ccccc1)CO2 (stereo not given),"inconclusive: 39.8 µM [inhibitor, partial curve, poor fit]",

Structure (SMILES),Potency,"activity change, negative = inhibition"
CCOc1ccc(S(=O)(=O)Nc2ccc(OC)c(Cl)c2)c2cccnc12,"inconclusive: 89.1 µM [inhibitor, partial curve, poor fit]",
CC(C)(C)NC(=O)CSc1nc(Cc2ccccc2)nc2ccccc12,,inactive: 1.01%
Cc1csc(NC(=O)CCc2ncc(-c3ccc(C)c(C)c3)o2)n1,,inactive: -29.7%
CCc1nc2ccccc2c(=O)n1NC(=O)c1c(O)c2ccccc2[nH]c1=O,,inactive: 0%
CCOc1ccc(C2C(C(N)=O)=C(C)Nc3nc(-c4cccc(Cl)c4)nn32)cc1OC (stereo not given),"inconclusive: 100 µM [inhibitor, partial curve, poor fit]",
O=C(c1cccc(S(=O)(=O)Nc2ccc(Br)cc2)c1)N1CCCC1,"inconclusive: 44.7 µM [inhibitor, partial curve, poor fit]",
Cn1nnnc1SCc1nc2scc(-c3ccc(Cl)cc3)c2c(=O)[nH]1,"inconclusive: 50.1 µM [inhibitor, partial curve, poor fit]",
CCNC(=O)CSc1nnc(-c2cc(-c3ccc(Cl)cc3)nc3ccccc23)o1,,inactive: -12.3%
O=C1c2ccccc2C(=Cc2cccs2)c2ccccc21,"inconclusive: 44.7 µM [inhibitor, partial curve, poor fit]",
CC(C)CCN1CCC(N2CCN(C(=O)CCc3ccccc3)CC2)C1=O (stereo not given),,inactive: 2.66%
COc1ccc(NC(C)=O)cc1NC1CCOC1=O (stereo not given),"inconclusive: 50.1 µM [inhibitor, single point]",
CCCCCCn1c(=O)n2n(c1=O)[C@@H]1CN(S(=O)(=O)c3ccc(C)cc3)C[C@]1(O)[C@@H](OC(=O)NC1CC1)C2,"inconclusive: 35.5 µM [inhibitor, partial curve, poor fit]",
CCOC(=O)c1cnc2c(C(=O)OCC)cnn2c1N,"inconclusive: 112 µM [inhibitor, partial curve, poor fit]",
CC(C)Oc1ccc(C(=O)NC2CCCCC2)cc1,,inactive: 17%
O=C(Nc1cccc(S(=O)(=O)N2CCCCCC2)c1)c1ccc(Cl)nc1,,inactive: -19.1%
CCN(CC)Cc1nc(C2(O)CCN(C3CCN(C(C)=O)CC3)CC2)cs1,"inconclusive: 11.2 µM [inhibitor, full curve, poor fit]",
Cc1ccc(-c2nc3ccc(Cl)cn3c2Cc2ccccc2C(F)(F)F)cc1,"inconclusive: 44.7 µM [inhibitor, partial curve, poor fit]",
Cc1[nH]n(-c2ccccc2)c(=O)c1C(=O)c1ccc([N+](=O)[O-])cc1,"inconclusive: 44.7 µM [inhibitor, partial curve, poor fit]",
CCN1C(=O)c2ccccc2S(=O)c2ccc(C(=O)NCc3ccccc3OC)cc21 (stereo not given),,inactive: -23.4%
Cc1nc2ccccc2c(=O)n1/N=C/c1ccncc1,"inconclusive: 31.6 µM [inhibitor, single point]",
CC(C)Oc1ccc(C(=O)Nc2nc3c(s2)CC(C(C)(C)C)CC3)cc1 (stereo not given),"inconclusive: 56.2 µM [inhibitor, partial curve, poor fit]",
Cc1[nH]c2ccccc2c1C(=O)C(Cl)c1ccccc1 (stereo not given),"inconclusive: 39.8 µM [inhibitor, partial curve, poor fit]",

Structure (SMILES),Potency,"activity change, negative = inhibition"
O=C(COC(=O)/C=C/c1ccc(Cl)cc1)NC1CCCC1,"inconclusive: 141 µM [inhibitor, partial curve, poor fit]",
COC(=O)c1[nH]c2ccc(Cl)cc2c1NC(=O)CN1CCc2cc(OC)c(OC)cc2C1,,inactive: 12.6%
O=C(CNC(=O)c1ccco1)Nc1ccc(N2CCCCCC2)cc1,,inactive: 7.29%
O=C(NCC(c1ccc2c(c1)OCO2)N1CCN(c2ccccc2)CC1)c1ccccc1 (stereo not given),,inactive: -17%
Cc1cccc(C)c1NC(=O)C(C1CC1)n1c(-c2ccc(C(F)(F)F)cc2)nc2ccccc21 (stereo not given),"inconclusive: 35.5 µM [inhibitor, single point]",
CCOC(=O)C1Oc2ccccc2C(c2ccc(OC)cc2)=C1C(=O)OC (stereo not given),"inconclusive: 79.4 µM [inhibitor, single point]",
CCN(CC)C(=O)CSc1nnc(-c2ccco2)n1Cc1ccco1,,inactive: -11.5%
Nc1ncccc1CN1CCC2(CC1)COCCN2C(=O)c1ccccc1,,inactive: 3.57% [at 176 µM]
COc1ccc(-c2[nH]nc3c2C(c2ccoc2)C(C#N)=C(N)O3)cc1 (stereo not given),"inconclusive: 44.7 µM [inhibitor, partial curve, poor fit]",
Cc1ccc(-n2[nH]c(C)c(/C=C3/C=Nc4ccccc43)c2=O)cc1C,"inconclusive: 44.7 µM [inhibitor, partial curve, poor fit]",
CCOC(=O)C1=CCC(c2ccc([N+](=O)[O-])cc2)N(S(=O)(=O)c2ccc(C)cc2)C1 (stereo not given),"inconclusive: 112 µM [inhibitor, single point]",
Cc1ccc2nc(C(NC(=O)C3CCN(CC(N)=O)CC3)C(C)C)[nH]c2c1 (stereo not given),,inactive: 123%
Cc1cc(C)n(CC(=O)NCC2(C)CCOCC2)n1,,inactive: 37.2%
COc1ccc2cnn(CC(=O)Nc3ccc(Oc4ccccc4)cc3)c(=O)c2c1OC,"inconclusive: 126 µM [inhibitor, single point]",
Cc1ccc(/C=C2\S/C(=N/S(=O)(=O)c3cccs3)NC2=O)cc1,active: 28.2 µM,
O=c1c2ccccc2nc2n1CCc1c-2[nH]c2ccccc12,"inconclusive: 20 µM [inhibitor, partial curve, poor fit]",
O=C(/C=C/C=C/c1ccc2c(c1)OCO2)N1CCCCC1,"inconclusive: 112 µM [inhibitor, single point]",
c1ccc(CNCCNCc2ccccc2)cc1,"inconclusive: 89.1 µM [inhibitor, single point]",
O=C(NCc1ccc(F)cc1)c1cc(C2CCCN(C(=O)c3ccc4ccccc4c3)C2)on1 (stereo not given),"inconclusive: 39.8 µM [inhibitor, partial curve, poor fit]",
CC(=O)c1cc(C#N)c(N2CCN(c3ccccc3)CC2)nc1C,"inconclusive: 79.4 µM [inhibitor, partial curve, poor fit]",
CN1C(=O)C(O)(CC(=O)c2ccccn2)c2cc(Br)ccc21 (stereo not given),"inconclusive: 28.2 µM [inhibitor, single point]",

# A draw from above in order of formula weight, smallest number first:
Structure (SMILES),Potency,"activity change, negative = inhibition"
c1ccc(CNCCNCc2ccccc2)cc1,"inconclusive: 89.1 µM [inhibitor, single point]",
COc1ccc(-c2[nH]nc3c2C(c2ccoc2)C(C#N)=C(N)O3)cc1 (stereo not given),"inconclusive: 44.7 µM [inhibitor, partial curve, poor fit]",
COC(=O)c1[nH]c2ccc(Cl)cc2c1NC(=O)CN1CCc2cc(OC)c(OC)cc2C1,,inactive: 12.6%

# — PubChem BioAssay AID1671190 (National Center for Advancing Translational Sciences (NCATS), 2021)
